PubChem BioAssay AID2685 (National Center for Advancing Translational Sciences (NCATS), 2010)
Some of the results follow. Further columns of the screen follow, without active or inactive calls. Most of these compounds were active or inconclusive in the main read-out, so they are no random draw. Words in brackets tell the shape of the fitted curve; partial curves, single points and poor fits give uncertain potencies.

Experiment: qHTS Assay for Lipid Storage Modulators in Drosophila S3 Cells;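 for cell number change: cells counted by Cell Tracker Red CMTPX staining in the red channel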
Conditions: BODIPY lipid droplet fluorescence, 18-24 h; for cell number change: measured here: cell count max response, cells fed with added oleic acid
Method in brief: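 Drosophila S3 cells got compounds at several concentrations plus oleic acid (400 uM solution). Laser-scanning cytometry with 488 nm excitation read lipid droplets at 500-530 nm and cells at 575-640 nm. Percent activity was relative to 20 uM Triacsin C.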

[1] = measured here: lipid fluorescence (Fed channel) AC50, cells fed with added oleic acid
[2] = measured here: cell number channel AC50, cells fed with added oleic acid

Structure (SMILES) | cell number change [%] | AC50 [1] | AC50 [2]
CC(C)N1CN=C(Nc2nc3ccccc3o2)NC1 | -27.9 | 29.1 µM [falling, single point] | –
Cc1ccc(NC(=O)COC(=O)Cc2cccs2)c(Br)c1 | 10.7 | 31.6 µM [rising, single point] | –
Cc1ccc(C2/C(=C(/O)c3ccc4c(c3)CC(C)O4)C(=O)C(=O)N2CCCn2ccnc2)cc1 (centres undefined) | -17.7 | 0.13 µM [falling, full curve, poor fit] | –
O=S(=O)(NCc1cccnc1)c1ccc2ccccc2c1 | 0.952 | – | –
Cc1ccc(C(=O)NCC(=O)Nc2ncccc2C)s1 | 22 | – | 0.58 µM [rising, full curve, poor fit]
COc1cccc(C(=O)OCC(=O)c2c[nH]c3ccccc23)c1O | – | 4.11 µM [falling, single point] | 5.8 µM [falling, single point]
COc1ccc(C(=O)c2nccc3ccccc23)cc1 | -12.7 | – | –
CCC(C)C(=O)Nc1nc(C)c(-c2csc(Nc3ccc(Cl)cc3)n2)s1 (centres undefined) | -60.3 | 18.4 µM [falling, partial curve] | 18.4 µM [falling, partial curve]
CCc1cc(C(=O)OCC(=O)N2CCC(c3ccccc3)=N2)sc1C | -22.8 | – | –
O=C(CC(c1ccccc1)(c1ccccc1)c1ccccc1)N[C@@H](Cc1ccc(O)cc1)C(=O)O | -21.9 | 32.6 µM [falling, single point] | –
COc1nc(C)ccc1-c1noc(-c2cccnc2)n1 | -9.49 | – | –
COC(=O)COc1nc(C)c2c(c1C#N)CC(C)(C)OC2 | 25.5 | 6.51 µM [falling, single point] | –
O=C1CC(c2ccccc2)=Nc2ccccc2N1Cc1ccccc1 | – | 0.58 µM [rising, single point] | –
Cc1ccccc1C(=O)Nc1nnc(S(=O)(=O)N2CCCCC2)s1 | 16.1 | 6.51 µM [rising, single point] | –
CC(C)(C)NC(=O)c1cnn2c1NC(c1ccc(F)cc1)CC2C(F)(F)F (centres undefined) | 1.02 | 1.84 µM [rising, single point] | –
CC(=O)c1cnn(-c2cc(Oc3ccccc3C)ncn2)c1C | 35.2 | – | 29.1 µM [rising, single point]

Structure (SMILES) | cell number change [%] | AC50 [1] | AC50 [2]
O=C(CCN1C(=O)/C(=C\c2cccs2)SC1=S)Nc1ccccn1 | – | 6.51 µM [rising, single point] | –
CCC(C(=O)NCCCc1ccccc1)n1nc(C)c2c(C)n(-c3ccccc3)nc2c1=O (centres undefined) | 19.2 | 1.84 µM [rising, full curve] | –
COc1ccc(C2/C(=C(/O)c3ccccc3)C(=O)C(=O)N2C)cc1OC (centres undefined) | -11.9 | 6.51 µM [falling, single point] | –
CN1CCN(C(=O)CSc2nc(-c3cccs3)ccc2C#N)CC1 | -11.4 | 6.51 µM [rising, single point] | 0.651 µM [falling, full curve, poor fit]
O=C(CN(c1ccc(F)cc1)S(=O)(=O)c1ccc2c(c1)OCCO2)NCc1cccnc1 | 32.2 | 14.6 µM [rising, partial curve] | 32.6 µM [rising, single point]
CCOC(=O)c1ccc(NC(=O)CCS(=O)(=O)c2cccc3nonc23)cc1 | 7.5 | – | –
Cc1ccc(C(OCC(O)CNCc2ccc(F)cc2)c2ccccc2)cc1 (centres undefined) | -69.9 | – | 29.1 µM [falling, single point]
O=C(CN1CCC(c2nc3ccccc3[nH]2)CC1)NCc1ccc2c(c1)OCO2 | 40.4 | 0.00731 µM [rising, full curve, poor fit] | 2.06 µM [rising, full curve]
[N-]=[N+]=NC[C@H](Cc1ccccc1)N1CCN(Cc2ccccc2)CCC1=O | 18.1 | 4.11 µM [falling, single point] | –
N#CCc1nc(CSc2nc3ccccc3o2)cs1 | -18 | – | –
COc1ccc(NC(=O)CCN2C(=O)c3cccc([N+](=O)[O-])c3C2=O)cc1 | – | 29.1 µM [rising, single point] | –
COc1ccc(-c2ccc(/C=C(\NC(=O)c3ccccc3)C(=O)N3CCOCC3)o2)cc1 | -20.7 | 20.6 µM [falling, single point] | –
COc1ccc([N+](=O)[O-])cc1NC(=O)CSc1ccc2ccccc2c1 | -17.9 | 4.61 µM [falling, single point] | –
N#Cc1c(-c2ccncc2)c2c([nH]c1=S)CCCC2 | -33.4 | 32.6 µM [falling, single point] | 32.6 µM [falling, single point]
CCSc1nsc(NC(=O)Nc2cccc(OC)c2)n1 | -32 | 16.4 µM [falling, partial curve] | 6.51 µM [falling, single point]

Shown with tabs: entries from further up.
Structure (SMILES)	cell number change [%]	AC50 [1]	AC50 [2]
O=C(CN1CCC(c2nc3ccccc3[nH]2)CC1)NCc1ccc2c(c1)OCO2	40.4	0.00731 µM [rising, full curve, poor fit]	2.06 µM [rising, full curve]
[N-]=[N+]=NC[C@H](Cc1ccccc1)N1CCN(Cc2ccccc2)CCC1=O	18.1	4.11 µM [falling, single point]	–
N#CCc1nc(CSc2nc3ccccc3o2)cs1	-18	–	–
COc1ccc(NC(=O)CCN2C(=O)c3cccc([N+](=O)[O-])c3C2=O)cc1	–	29.1 µM [rising, single point]	–
COc1ccc(-c2ccc(/C=C(\NC(=O)c3ccccc3)C(=O)N3CCOCC3)o2)cc1	-20.7	20.6 µM [falling, single point]	–
